Reference: patent US5633003A, “Use of intratracheally administered hyaluronic acid to ameliorate emphysema” (priority 1994, dated 1997)

Tested on: lung elastin
Test: Lung desmosine and isodesmosine measurements (lung elastin content)
Format: in vivo, Syrian hamsters
Conditions: 24 hours

| Substance | lung content of desmosine and isodesmosine cross-links (elastin) (elastase then hyaluronidase) [μg/mg dry lung] | lung content of desmosine and isodesmosine cross-links (elastin) (hyaluronidase then elastase) [μg/mg dry lung] | lung elastin content (all animals receiving elastase vs saline alone) | lung content of desmosine and isodesmosine cross-links (elastin) (saline then elastase) [μg/mg dry lung] |
| --- | --- | --- | --- | --- |
| hyaluronidase | 184 | 206 |  |  |
| elastase: porcine pancreatic elastase (Elastin Products), used to induce emphysema |  |  | significant reduction in lung elastin content; also recorded: significant decrease in cross-linked elastin | 192 |

Entries after “also recorded” stand apart in the source; their conditions may differ.
